Data reported in PubChem BioAssay AID256 (DTP/NCI, 2004).
The list does not hold the whole screen: it gathers tests that were run many times, whatever their T/C, doses with no T/C, and many T/C values between a quarter and a half above the control. Further doses and runs are listed elsewhere. T/C: endpoint of the treated group in % of that of the vehicle group. Some doses have a count of surviving animals in place of a T/C: the source files T/C as zero there, which appears to mark a toxic dose or a test without result, not a measured value. Some doses without a T/C left all or most animals alive at the check, yet need not have been tolerated: survival well below the control is almost never listed, so the zero probably covers shortened survival too. Counts of survivors are from the toxicity check (mostly the fifth day) where no day follows; animals may have died later. Schedules are NCI's codes, taken here to give the interval after Q, in days (D) or hours (H), and the number of doses after X. Some doses were run more than once; the results are listed from low to high. Some schedules carry Z or #; the key to these is not given. For survival time, the PubChem record calls one and a half times the control and up active, and a quarter to a half above the control has no call in these data; cut-offs in other NCI protocols can differ.

Test system: CD2F1 mice, L1210 leukemia ip, survival T/C
Assay: NCI In Vivo Anticancer Drug Screen. Data for tumor model L1210 Leukemia (intraperitoneal) in CD2F1 (CDF1) mice
Conditions: higher T/C = longer survival
Procedure, shortened: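 Vehicle-treated tumor-bearing mice served as controls (C) for compound-treated mice (T). Reported figure is T divided by C.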

[1] = T/C endpoint: mean survival time, dose: 400.0 mg/kg/injection, schedule: Q04DX002 (ip), vehicle: saline with Tween-80
[2] = T/C endpoint: mean survival time, dose: 150.0 mg/kg/injection, schedule: Q01DX001 (ip), vehicle: saline
[3] = T/C endpoint: mean survival time, dose: 300.0 mg/kg/injection, schedule: Q01DX001 (ip), vehicle: saline

For `CN1CC(NC(=O)N(CCCl)N=O)CC2c3cccc4[nH]cc(c34)CC21` (stereo unspecified), the T/C (T/C endpoint: mean survival time, dose: 25.0 mg/kg/injection, schedule: Q01DX001 (ip), vehicle: other) was 137 % of control.

With `CC(C)(C)C1=CC(=O)C(C(C)(C)C)=CC1=O` the survivor count (T/C endpoint: mean survival time, dose: 400.0 mg/kg/injection, schedule: Q01DX001 (ip), vehicle: saline with Tween-80) was 0 of 6.

`COc1ccc(C=C2C(=O)C=CC2=O)cc1OC` was tested, and the survivor count (T/C endpoint: mean survival time, dose: 20.0 mg/kg/injection, schedule: Q04DX002 (ip), vehicle: saline with Tween-80) was 0 of 3, the survivor count (T/C endpoint: mean survival time, dose: 100.0 mg/kg/injection, schedule: Q04DX002 (ip), vehicle: saline with Tween-80) was 0 of 3 and the survivor count (T/C endpoint: mean survival time, dose: 200.0 mg/kg/injection, schedule: Q04DX002 (ip), vehicle: saline with Tween-80) was 0 of 3. For the same compound, the survivor count [1] was 0 of 3.

`NC(=O)COc1ccc(Br)cc1` was tested, and the survivor count [1] was 1 of 3.

`O=C(Nc1cccc(F)c1)c1c(O)[nH]c(=S)[nH]c1=O` was tested, and the T/C (T/C endpoint: median survival time, dose: 100.0 mg/kg/injection, schedule: Q01DX009 (ip), vehicle: saline with Tween-80) was 128 % of control and the survivor count (T/C endpoint: median survival time, dose: 200.0 mg/kg/injection, schedule: Q01DX009 (ip), vehicle: saline with Tween-80) was 3 of 5.

`O=NN(CCBr)C(=O)Nc1ccccc1` was tested, and the T/C (T/C endpoint: mean survival time, dose: 12.0 mg/kg/injection, schedule: Q01DX Z (ip), vehicle: carboxymethylcellulose (CMC)) was 146 % of control and the T/C (T/C endpoint: mean survival time, dose: 50.0 mg/kg/injection, schedule: Q01DX Z (ip), vehicle: carboxymethylcellulose (CMC)) was 140 % of control.

In the case of `Nc1nc(N)c2cc(CNc3ccc(C(=O)NC(CC(=O)O)CC(=O)O)cc3)ccc2n1`, the T/C (T/C endpoint: mean survival time, dose: 25.0 mg/kg/injection, schedule: Q01DX009 (ip), vehicle: Klucel (hydroxypropylcellulose) (HPC)) is reported as 148 % of control.

For `BrCC1OCCCO1`, the survivor count (T/C endpoint: mean survival time, dose: 100.0 mg/kg/injection, schedule: Q01DX009 (ip), vehicle: saline with Tween-80) was 3 of 3.

In the case of `COc1cc(-c2ccc(N)c(OC)c2)ccc1N`, the survivor count (T/C endpoint: mean survival time, dose: 400.0 mg/kg/injection, schedule: Q01DX009 (ip), vehicle: saline) is reported as 0 of 3 and 0 of 6.

With `Cc1cccc(NC(=O)C2CCC(C)(C(=O)O)C2(C)C)c1` (stereo unspecified) the survivor count (T/C endpoint: mean survival time, dose: 400.0 mg/kg/injection, schedule: Q04DX003 (ip), vehicle: saline with Tween-80) was 1 of 6.

With `CSc1nnc(SC)c(SC)n1` the survivor count [2] was 2 of 6 and the survivor count [3] was 0 of 6.

With `CC(C)(C)C(=O)CC(=O)C(C)(C)C.CC(C)(C)C(=O)CC(=O)C(C)(C)C.[Cu]` the survivor count (T/C endpoint: mean survival time, dose: 38.0 mg/kg/injection, schedule: Q01DX009 (ip), vehicle: saline with Tween-80) was 1 of 6.

For `COc1ccc(-c2[nH]c(=S)[nH]c(=O)c2CCO)cc1`, the survivor count (T/C endpoint: mean survival time, dose: 200.0 mg/kg/injection, schedule: Q01DX009 (ip), vehicle: saline with Tween-80) was 6 of 6.

For `CN1CCN=C1c1ccc(NC(=O)c2ccc(C(=O)Nc3ccc(C4=NCCN4C)cc3)c(N)c2)cc1`, the survivor count (T/C endpoint: mean survival time, dose: 9.0 mg/kg/injection, schedule: Q01DX Z (ip), vehicle: water) was 1 of 6, the survivor count (T/C endpoint: mean survival time, dose: 12.0 mg/kg/injection, schedule: Q01DX Z (ip), vehicle: water) was 0 of 6 and the survivor count (T/C endpoint: mean survival time, dose: 24.0 mg/kg/injection, schedule: Q01DX Z (ip), vehicle: water) was 0 of 6. The survivor count (T/C endpoint: mean survival time, dose: 48.0 mg/kg/injection, schedule: Q01DX Z (ip), vehicle: water) was 0 of 6.

With `O=CN(O)CC(=O)O.[Zn]` the survivor count (T/C endpoint: mean survival time, dose: 50.0 mg/kg/injection, schedule: Q04DX003 (ip), vehicle: saline) was 1 of 6, the survivor count (T/C endpoint: mean survival time, dose: 100.0 mg/kg/injection, schedule: Q04DX003 (ip), vehicle: saline) was 0 of 6 and the survivor count (T/C endpoint: mean survival time, dose: 200.0 mg/kg/injection, schedule: Q04DX003 (ip), vehicle: saline) was 0 of 6. The survivor count (T/C endpoint: mean survival time, dose: 400.0 mg/kg/injection, schedule: Q04DX003 (ip), vehicle: saline) was 0 of 6.

With `O=[N+]([O-])c1cc[n+]([O-])cc1` the survivor count [2] was 1 of 6 and the survivor count [3] was 0 of 6.

For `Cc1cccc(C(=O)NN)c1`, the survivor count [2] was 3 of 6 and the survivor count [3] was 0 of 6.

With `CC1=C(/C=C/C(C)=C/C=C/C(C)=C/C(=O)O)C(C)(C)CCC1` the survivor count (T/C endpoint: mean survival time, dose: 256.0 mg/kg/injection, schedule: Q01DX009 (ip), vehicle: saline with Tween-80) was 6 of 6.

With `Cc1c2oc3c(C)ccc(C(=O)NC4C(=O)NC(C(C)C)C(=O)N5CCCC5C(=O)N(C)CC(=O)N(C)C(C(C)C)C(=O)OC4C)c3nc-2c(C(=O)NC2C(=O)NC(C(C)C)C(=O)N3CCC3C(=O)N(C)CC(=O)N(C)C(C(C)C)C(=O)OC2C)c(N)c1=O` (stereo unspecified) the T/C (T/C endpoint: mean survival time, dose: 150.0 micrograms/kg/injection, schedule: Q01DX009 (ip), vehicle: saline + alcohol) was 126 % of control and the survivor count (T/C endpoint: mean survival time, dose: 1200.0 micrograms/kg/injection, schedule: Q01DX009 (ip), vehicle: saline + alcohol) was 6 of 6.

`Brc1ccc([I+]c2ccc(Br)cc2)cc1` was tested, and the survivor count (T/C endpoint: mean survival time, dose: 100.0 mg/kg/injection, schedule: Q04DX003 (ip), vehicle: saline with Tween-80) was 3 of 6 and the survivor count (T/C endpoint: mean survival time, dose: 200.0 mg/kg/injection, schedule: Q04DX003 (ip), vehicle: saline with Tween-80) was 3 of 6.
